Experimental data: publication PMC4599271
No constants are given. Whether binding was seen depends on the method and setting. In cells and extracts the contact can be indirect. Some results given as binding are weak or reduced against the parent protein; the word gives no strength.

The chains behind the UniProt entries cited, without tags or fusion partners.
UniProt Q02248: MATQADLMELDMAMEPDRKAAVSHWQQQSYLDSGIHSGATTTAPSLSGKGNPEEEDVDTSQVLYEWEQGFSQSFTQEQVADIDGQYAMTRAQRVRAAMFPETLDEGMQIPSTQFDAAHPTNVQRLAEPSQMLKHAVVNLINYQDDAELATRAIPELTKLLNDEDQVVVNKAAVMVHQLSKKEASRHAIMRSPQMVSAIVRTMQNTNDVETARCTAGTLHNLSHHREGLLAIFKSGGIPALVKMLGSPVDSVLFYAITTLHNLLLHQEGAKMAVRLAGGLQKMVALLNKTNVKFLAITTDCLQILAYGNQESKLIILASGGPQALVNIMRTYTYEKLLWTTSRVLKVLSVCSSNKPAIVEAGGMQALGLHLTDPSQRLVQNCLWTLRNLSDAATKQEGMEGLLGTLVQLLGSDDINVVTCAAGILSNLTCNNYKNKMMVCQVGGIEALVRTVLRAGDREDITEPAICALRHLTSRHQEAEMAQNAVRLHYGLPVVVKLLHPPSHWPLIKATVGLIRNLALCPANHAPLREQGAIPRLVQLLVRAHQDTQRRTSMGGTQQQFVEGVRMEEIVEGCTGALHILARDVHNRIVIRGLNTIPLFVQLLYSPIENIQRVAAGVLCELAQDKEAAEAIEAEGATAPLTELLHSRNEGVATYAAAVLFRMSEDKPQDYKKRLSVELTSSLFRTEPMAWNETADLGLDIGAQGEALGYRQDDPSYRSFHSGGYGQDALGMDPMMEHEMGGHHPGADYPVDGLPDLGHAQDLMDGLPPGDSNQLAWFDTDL

Biological target: active β-catenin (mouse (endogenous in R7)) (UniProt Q02248)
Assay: co-IP; immunoprecipitation studies in R7 cells; data not shown; the precipitating antibody and the treatment with 1,25D3 are not told

B1: vitamin D receptor (protein, UniProt P48281 1-422)
chain: MEAMAASTSLPDPGDFDRNVPRICGVCGDRATGFHFNAMTCEGCKGFFRRSMKRKALFTCPFNGDCRITKDNRRHCQACRLKRCVDIGMMKEFILTDEEVQRKREMIMKRKEEEALKDSLRPKLSEEQQHIIAILLDAHHKTYDPTYADFRDFRPPIRADVSTGSYSPRPTLSFSGDSSSNSDLYTPSLDMMEPASFSTMDLNEEGSDDPSVTLDLSPLSMLPHLADLVSYSIQKVIGFAKMIPGFRDLTSDDQIVLLKSSAIEVIMLRSNQSFTLDDMSWDCGSQDYKYDITDVSRAGHTLELIEPLIKFQVGLKKLNLHEEEHVLLMAICIVSPDRPGVQDAKLVEAIQDRLSNTLQTYIRCRHPPPGSHQLYAKMIQKLADLRSLNEEHSKQYRSLSFQPENSMKLTPLVLEVFGNEIS
binding: binds
